For four molecules, growth induction results are on record in PubChem BioAssay AID463199 (Broad Institute, 2010).

Molecules are shown by their SMILES. In all, about 2,300 compounds were measured (“growth induction”: median about -24, highest 2% from about 42 on). Some of the results follow. Measured potencies and affinities stand elsewhere. The source made no clear call on entries shown without one.

This test in a line: restored growth of temperature-sensitive Burl-1 yeast – whole organism, S. cerevisiae, Burl-1 ts mutant, luminescence, counter-screen for SUMOylation pathway inhibitor project, dose response (AID 463199). The conditions noted are these: S. cerevisiae Burl-1 ts mutant growth, BacTiter-Glo, 38.5C 24 h; at 42 µM (top of the series). (In general: Counterscreens check selectivity or assay interference.)
In the case of `CCOC(=O)c1ccc(CNC(=O)C2CCCCC2C(=O)OCC(F)(F)F)o1` (centres undefined), the growth induction was 41.9%.
As to `N#Cc1c2ccc([N+](=O)[O-])cc2[n+]([O-])n1-c1ccccc1`, the growth induction was found to be 13.5%.
In the case of `Cc1ccc(/C=C/C(=O)c2ccc([N+](=O)[O-])o2)cc1`, the growth induction is -24.1%.
Regarding `N#Cc1c(NC(=O)c2ccc([N+](=O)[O-])o2)sc2c1CCC2`, the growth induction is -50.2%.
